This assay deals with HA-FRB-P56S-VAPB (human) (UniProt O95292). Kind of assay: proximity labelling; RAPIDS as before but with the nuclear reporter FKBP12-cNLS-GFP2-APEX2; Neutravidin beads, quantitative mass spectrometry (label swap) and Western blot. On the technique in general: A western blot detects proteins with antibodies after separation by electrophoresis.

Amino acid sequences for entries named in this document (tags omitted). A change or cut given only in a name is not applied to a line headed by its entry.
UniProt O95292: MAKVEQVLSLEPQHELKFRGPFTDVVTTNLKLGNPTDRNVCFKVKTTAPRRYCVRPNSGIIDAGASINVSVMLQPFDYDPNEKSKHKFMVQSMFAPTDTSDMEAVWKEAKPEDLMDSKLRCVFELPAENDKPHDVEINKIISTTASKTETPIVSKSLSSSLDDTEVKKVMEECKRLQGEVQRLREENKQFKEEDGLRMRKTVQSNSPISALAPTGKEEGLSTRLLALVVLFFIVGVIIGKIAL

These are yes or no findings as the source states them, for the method shown. In cells and extracts the contact can be indirect. These calls come from enrichment with a bait or labelling near it, and not all partners need be listed. No binding means not detected with the bait.

B1: endogenous OSBPL9 (protein, UniProt Q96SU4 1-736)
chain: MASIMEGPLSKWTNVMKGWQYRWFVLDYNAGLLSYYTSKDKMMRGSRRGCVRLRGAVIGIDDEDDSTFTITVDQKTFHFQARDADEREKWIHALEETILRHTLQLQGLDSGFVPSVQDFDKKLTEADAYLQILIEQLKLFDDKLQNCKEDEQRKKIETLKETTNSMVESIKHCIVLLQIAKDQSNAEKHADGMISTINPVDAIYQPSPLEPVISTMPSQTVLPPEPVQLCKSEQRPSSLPVGPVLATLGHHQTPTPNSTGSGHSPPSSSLTSPSHVNLSPNTVPEFSYSSSEDEFYDADEFHQSGSSPKRLIDSSGSASVLTHSSSGNSLKRPDTTESLNSSLSNGTSDADLFDSHDDRDDDAEAGSVEEHKSVIMHLLSQVRLGMDLTKVVLPTFILERRSLLEMYADFFAHPDLFVSISDQKDPKDRMVQVVKWYLSAFHAGRKGSVAKKPYNPILGEIFQCHWTLPNDTEENTELVSEGPVPWVSKNSVTFVAEQVSHHPPISAFYAECFNKKIQFNAHIWTKSKFLGMSIGVHNIGQGCVSCLDYDEHYILTFPNGYGRSILTVPWVELGGECNINCSKTGYSANIIFHTKPFYGGKKHRITAEIFSPNDKKSFCSIEGEWNGVMYAKYATGENTVFVDTKKLPIIKKKVRKLEDQNEYESRSLWKDVTFNLKIRDIDAATEAKHRLEERQRAEARERKEKEIQWETRLFHEDGECWVYDEPLLKRLGAAKH
Regarding B1, the binding result is “no binding”.

B2: endogenous TMEM43 (protein, UniProt Q9BTV4 1-400)
chain: MAANYSSTSTRREHVKVKTSSQPGFLERLSETSGGMFVGLMAFLLSFYLIFTNEGRALKTATSLAEGLSLVVSPDSIHSVAPENEGRLVHIIGALRTSKLLSDPNYGVHLPAVKLRRHVEMYQWVETEESREYTEDGQVKKETRYSYNTEWRSEIINSKNFDREIGHKNPSAMAVESFMATAPFVQIGRFFLSSGLIDKVDNFKSLSLSKLEDPHVDIIRRGDFFYHSENPKYPEVGDLRVSFSYAGLSGDDPDLGPAHVVTVIARQRGDQLVPFSTKSGDTLLLLHHGDFSAEEVFHRELRSNSMKTWGLRAAGWMAMFMGLNLMTRILYTLVDWFPVFRDLVNIGLKAFAFCVATSLTLLTVAAGWLFYRPLWALLIAGLALVPILVARTRVPAKKLE
B2: the binding entry is on record as “no binding”.

B3: endogenous ACBD5 (protein, UniProt Q5T8D3 1-534)
chain: MFQFHAGSWESWCCCCLIPADRPWDRGQHWQLEMADTRSVHETRFEAAVKVIQSLPKNGSFQPTNEMMLKFYSFYKQATEGPCKLSRPGFWDPIGRYKWDAWSSLGDMTKEEAMIAYVEEMKKIIETMPMTEKVEELLRVIGPFYEIVEDKKSGRSSDITSVRLEKISKCLEDLGNVLTSTPNAKTVNGKAESSDSGAESEEEEAQEEVKGAEQSDNDKKMMKKSADHKNLEVIVTNGYDKDGFVQDIQNDIHASSSLNGRSTEEVKPIDENLGQTGKSAVCIHQDINDDHVEDVTGIQHLTSDSDSEVYCDSMEQFGQEESLDSFTSNNGPFQYYLGGHSSQPMENSGFREDIQVPPGNGNIGNMQVVAVEGKGEVKHGGEDGRNNSGAPHREKRGGETDEFSNVRRGRGHRMQHLSEGTKGRQVGSGGDGERWGSDRGSRGSLNEQIALVLMRLQEDMQNVLQRLQKLETLTALQAKSSTSTLQTAPQPTSQRPSWWPFEMSPGVLTFAIIWPFIAQWLVYLYYQRRRRKLN
For the molecule B3, the binding entry was “no binding”.

Values taken from article PMC8707790.
